According to PubChem BioAssay AID504467 (National Center for Advancing Translational Sciences (NCATS), 2011):
Hit rate of the full screen: of about 330,000 compounds, about 7,700 (2.3%) were called active. The inconclusive results got no clear call from the source; some entries with a clear call stand among them for comparison. The call rests on the fitted dose curve; in most records, active means well fitted inhibition curve with a large enough effect; inconclusive means small, poorly fitted or top-dose-only effect, or effect the other way; inactive means flat fitted curve, though single readings scatter. Potencies beside an inconclusive call are fits to weak or partial responses and may not hold up.

Assay: qHTS screen for small molecules that inhibit ELG1-dependent DNA repair in human embryonic kidney (HEK293T) cells expressing luciferase-tagged ELG1; further: nearly all actives have a fitted effect of over 55% in size
Conditions: HEK293T ELG1-luciferase reporter, luminescence, 16 h, DNA damage induced by 5-fluorouridine; series mostly up to 46.1 µM
In short: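 5-Fluorouridine DNA damage + compound/DMSO, 2,000 cells/well, 16 h, 37 °C/5% CO2. ONE-Glo, 30 min RT, luminescence. Readout = decrease in reporter signal.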
Potency means the concentration at half of the fitted maximal effect.

Compound	Potency
CC(c1ccccc1)n1c(SCC(=O)Nc2ccccc2)n[nH]c1=O (stereo not given)	inconclusive: 18.3 µM [inhibitor, single point]
COc1ccccc1N1CCN(C(c2cccs2)C(C)NC(=O)c2ccco2)CC1 (stereo not given)	inconclusive: 29.1 µM [inhibitor, partial curve, poor fit]
COc1ccc(/C=N/N2CCN(c3ccc(Cl)cc3)CC2)cc1	inactive
CC(C)N(C(=O)COC(=O)[C@@H]1CC(O)CN1S(=O)(=O)c1ccc(C(C)(C)C)cc1)C(C)C (stereo not given in full)	inconclusive: 0.0116 µM [inhibitor, full curve, poor fit]
Cc1cc(OCC(=O)NCC(c2cccs2)N2CCOCC2)ccc1C(C)C (stereo not given)	inactive
CC1CN(S(=O)(=O)c2cccc3nsnc23)CC(C)O1 (stereo not given)	inactive
COC(=O)[C@@]12CCCCN1[C@H](c1ccc(-c3cc(C(C)=O)cs3)cc1)[C@H]1C(=O)N(C)C(=O)[C@H]12	inconclusive: 31.6 µM [inhibitor, single point]
COc1ccc(-c2cn[nH]c2-c2ccc(O)cc2O)cc1	inconclusive: 2.31 µM [inhibitor, full curve]
O=C(CCS(=O)(=O)c1ccc(Cl)cc1)NCCN1C(=O)S/C(=C\c2ccccc2F)C1=O	inconclusive: 16.4 µM [inhibitor, single point]
C=CCNC(=O)c1ccc(C)cc1Cl	inconclusive: 35.5 µM [activator, single point]
COc1cccc(OCCn2cc(C=O)c3ccccc32)c1	inactive
Cc1cccc2sc(NC(=O)c3ccc(Cl)s3)nc12	inconclusive: 20.6 µM [activator, single point]
CCc1ccc(NC(=O)Nc2cnccn2)cc1	inconclusive: 13 µM [activator, partial curve]
COc1ccc(/C=N/NC(=O)c2nnn(-c3nonc3N)c2-c2cccs2)cc1OC	inactive
Cc1nc2scc(C)n2c(=O)c1S(=O)(=O)NCC1CCN(Cc2ccc(F)cc2)CC1	inactive
O=C1NC(=S)S/C1=C\c1ccc2ccccc2c1	inconclusive: 16.4 µM [activator, partial curve]
COc1ccc(-n2nc3cc(N)c(Br)cc3n2)cc1	inconclusive: 8.91 µM [activator, partial curve]
O=C(Nc1ccccc1N1CCOCC1)c1ccc(Br)o1	inconclusive: 14.6 µM [inhibitor, partial curve, poor fit]
COCCn1c(=S)[nH]c2cc(C(=O)N3CCN(Cc4ccc5c(c4)OCO5)CC3)ccc2c1=O	active: 5.17 µM
CCOC(=O)Cc1c(Sc2ccccc2)c2cc(C)ccc2n1C	inconclusive: 6.51 µM [activator, single point]
O=C(Nc1nn(Cc2ccc(Cl)cc2)cc1Br)c1ccc(COc2ccccc2Cl)o1	active: 18.4 µM
CC(C)(C)OC(=O)NCCCCCc1nnc(SCc2ccccc2F)o1	inconclusive: 29.1 µM [inhibitor, single point]
COc1ccc(C(=O)C2CCN(CC(=O)Nc3ccc(C)cc3)CC2)cc1	inactive
Cc1cccc(NC(=O)c2cc(-c3cc(Cl)ccc3O)n[nH]2)c1	inconclusive: 4.61 µM [activator, full curve, poor fit]

Laid out differently: entries from further up
Compound | Potency
CC(C)(C)OC(=O)NCCCCCc1nnc(SCc2ccccc2F)o1 | inconclusive: 29.1 µM [inhibitor, single point]
COc1ccc(C(=O)C2CCN(CC(=O)Nc3ccc(C)cc3)CC2)cc1 | inactive

(further entries)

Compound	Potency
COc1ccc(S(=O)(=O)N2CCCCC2)cc1NC(=O)c1cccnc1SC	inconclusive: 5.8 µM [inhibitor, partial curve, poor fit]
CCOc1ccccc1CN1CCCC(CNS(=O)(=O)c2ccc(OC)cc2)C1 (stereo not given)	inactive
CCCc1nc2c([nH]1)C(c1cccnc1)C(C#N)=C(N)O2 (stereo not given)	inactive
COC(=O)c1nn(-c2ccc(OC)cc2)c(=O)cc1O	inconclusive: 6.51 µM [activator, full curve, poor fit]
COc1ccc(C(=O)CCN2CCN(c3ccc(OC)cc3)CC2)cc1	inactive
COc1cc(NC(=O)N2CCNC2=O)cc(C(=O)Nc2cccc(C(F)(F)F)c2)c1	inconclusive: 4.11 µM [inhibitor, full curve]
COc1ccc(-c2cc(=O)[nH][nH]2)cc1OC	inactive
CC[C@]1(C(=O)OC)[C@H]2C(=O)N(Cc3ccccc3)C(=O)[C@H]2[C@H]2CN=C(SCc3ccc(C)cc3)N21	inactive
C/C(=N/Oc1nc(C)cc(C)n1)c1ccccc1	inconclusive: 18.4 µM [activator, partial curve]
Cc1ccc2cc(C#N)c(N3CCCN(S(=O)(=O)c4ccc(F)cc4)CC3)nc2c1	inconclusive: 29.1 µM [inhibitor, partial curve, poor fit]
O=C(COC(=O)c1ccccc1Nc1ccccc1)NCc1ccccc1	inconclusive: 32.6 µM [activator, partial curve, poor fit]
S=C(Nc1ccc(Cl)cc1)N(CCCN1CCOCC1)Cc1ccco1	inactive
COc1ccc(C2=CSC3=NCCN23)cc1[N+](=O)[O-]	inconclusive: 13 µM [activator, partial curve, poor fit]
COc1ccc(CCn2c(-c3cc([N+](=O)[O-])cc([N+](=O)[O-])c3)nc3nc4ccccc4nc32)cc1OC	inconclusive: 23.1 µM [inhibitor, partial curve]
CCN(CC)CCN(C(=O)c1ccc(Br)s1)c1nc2cc3c(cc2s1)OCO3	inactive
COc1ccc(Cn2cc3c(-c4ccc(F)cc4)nnc-3c3cc(OC)c(OC)cc32)cc1	inconclusive: 29.1 µM [inhibitor, single point]
CCOc1ccc(-n2nc3ccc(N)cc3n2)cc1	inconclusive: 1.03 µM [activator, full curve]
Cc1nc(=O)c(-c2ccccc2)c(C)n1-c1cccc(/C=C/C(=O)O)c1	inactive
CCc1ccc(CSc2nccn2-c2ccccc2)cc1	inactive
CC(C)CC(=O)NC(=S)Nc1ccc(N2CCOCC2)c(Cl)c1	inconclusive: 23.1 µM [inhibitor, partial curve, poor fit]
O=C(CSc1nc2ccccc2n1S(=O)(=O)c1ccccc1)N1CCCCC1	inconclusive: 13 µM [activator, partial curve]
COc1ccc(CN(C)C(=O)C23CC4CC(CC(Cl)(C4)C2)C3)c(OC)c1OC	active: 25.9 µM
O=C(Cc1ccc(Cl)cc1)Nc1cccc(S(=O)(=O)N2CCCCC2)c1	inconclusive: 29.1 µM [inhibitor, single point]
CCCOCCc1nnc(N)s1	inactive

4 entries picked at random from those above, as already listed:
Compound	Potency
COc1ccc(Cn2cc3c(-c4ccc(F)cc4)nnc-3c3cc(OC)c(OC)cc32)cc1	inconclusive: 29.1 µM [inhibitor, single point]
CCCOCCc1nnc(N)s1	inactive
COc1cccc(OCCn2cc(C=O)c3ccccc32)c1	inactive
O=C(Nc1nn(Cc2ccc(Cl)cc2)cc1Br)c1ccc(COc2ccccc2Cl)o1	active: 18.4 µM

Following part:

Compound	Potency
COCCCNC(=O)c1sc2ncnc(N3CCc4ccccc4C3)c2c1C	active: 8.2 µM
O=C(COc1ccc([N+](=O)[O-])cc1Cl)NCCN1C(=O)CSC1=O	inactive
O=C(c1cc2ccccc2oc1=O)N1CCOCC1	inconclusive: 18.3 µM [activator, partial curve]
CCOC(=O)C1CCCN(C(=O)c2sc3nc(-c4ccccc4)cn3c2C)C1 (stereo not given)	inconclusive: 18.4 µM [inhibitor, single point]
CC(C)N1CCN(C(=O)C2CCC(=O)N(CCc3cccc(F)c3)C2)CC1 (stereo not given)	inconclusive: 32.6 µM [activator, partial curve, poor fit]
OC(COCc1cccs1)CN1CCN(c2cccc(C(F)(F)F)c2)CC1 (stereo not given)	inactive
Cc1cc(C)cc(NC(=O)CC23CC4CC(C2)CC(n2nnc(C)n2)(C4)C3)c1	inconclusive: 6.51 µM [inhibitor, partial curve, poor fit]
COc1ccc(C(=O)NC2CCSc3ccccc32)cc1 (stereo not given)	inconclusive: 23.1 µM [activator, partial curve, poor fit]
COC(=O)c1ccc(NC(=O)c2ccc(F)cc2)o1	inconclusive: 23.1 µM [activator, partial curve, poor fit]
COc1ccc(-c2noc(CSc3nc(N)c(-c4ccccc4)c(=O)[nH]3)n2)cc1	inconclusive: 29.1 µM [inhibitor, single point]
O=C(O)/C(=C\c1ccc(F)cc1)c1ccc(-c2ccccc2)cc1	inconclusive: 29.1 µM [inhibitor, single point]
CCOCCOc1cccc(C(=O)NC(c2ccccc2)c2ccccc2)c1	inactive
O=C(Nc1cccc(C(F)(F)F)c1)C(Sc1n[nH]c(=O)[nH]c1=O)c1ccccc1 (stereo not given)	inconclusive: 29.1 µM [inhibitor, single point]
O=C1C=C(c2ccc3[nH]ccc3c2)C[C@@H](c2ccc(Cl)cc2)C1	inconclusive: 20.6 µM [inhibitor, single point]
Nc1ncc(Br)cc1S(=O)(=O)NCCC(=O)N1CCN(c2ccccc2)CC1	inactive
Cc1c(C(=O)N2CCC(C)CC2)sc2ncnc(N3CCN(c4ccccc4)CC3)c12	inactive
Cc1ccc(N=c2c([N+](=O)[O-])nn(-c3ccccc3)n2O)c(C)c1	inconclusive: 16.4 µM [activator, single point]
Cc1cc(C)c2cc(CN(CCCO)S(=O)(=O)c3ccccc3F)c(=O)[nH]c2c1	inactive
Cc1ccc(Nc2nc(N)c([N+](=O)[O-])c(NCCO)n2)cc1	inconclusive: 8.2 µM [activator, partial curve, poor fit]
C=CCn1c(SCC(=O)Nc2ccc(C(=O)OC(C)C)cc2)nnc1-c1cccs1	inconclusive: 7.31 µM [inhibitor, single point]
Cn1nc(C(F)(F)F)cc1-c1ccc(/C=C(\C#N)C(=O)c2ccccc2)s1	inconclusive: 9.2 µM [activator, partial curve]
C/C(=N\NC(=O)c1ccccc1)c1ccc(-n2ccnc2)cc1	inconclusive: 16.4 µM [activator, single point]
